Experimental data as given in patent US20230219986A1, “NOVEL AMINOPYRIMIDINE EGFR INHIBITOR” (QILU PHARMACEUTICAL CO., LTD., priority 2020, published 2023).

By UniProt entry, the sequences of proteins in these tests, tags left out. Where a name states a change or a piece, a line headed by the entry shows the natural chain unless it says otherwise. Chains listed by the source or under a name are the forms on record and can include a tag or linker. Residues count along the entry.
UniProt P00533, 25-1210 limits assumed: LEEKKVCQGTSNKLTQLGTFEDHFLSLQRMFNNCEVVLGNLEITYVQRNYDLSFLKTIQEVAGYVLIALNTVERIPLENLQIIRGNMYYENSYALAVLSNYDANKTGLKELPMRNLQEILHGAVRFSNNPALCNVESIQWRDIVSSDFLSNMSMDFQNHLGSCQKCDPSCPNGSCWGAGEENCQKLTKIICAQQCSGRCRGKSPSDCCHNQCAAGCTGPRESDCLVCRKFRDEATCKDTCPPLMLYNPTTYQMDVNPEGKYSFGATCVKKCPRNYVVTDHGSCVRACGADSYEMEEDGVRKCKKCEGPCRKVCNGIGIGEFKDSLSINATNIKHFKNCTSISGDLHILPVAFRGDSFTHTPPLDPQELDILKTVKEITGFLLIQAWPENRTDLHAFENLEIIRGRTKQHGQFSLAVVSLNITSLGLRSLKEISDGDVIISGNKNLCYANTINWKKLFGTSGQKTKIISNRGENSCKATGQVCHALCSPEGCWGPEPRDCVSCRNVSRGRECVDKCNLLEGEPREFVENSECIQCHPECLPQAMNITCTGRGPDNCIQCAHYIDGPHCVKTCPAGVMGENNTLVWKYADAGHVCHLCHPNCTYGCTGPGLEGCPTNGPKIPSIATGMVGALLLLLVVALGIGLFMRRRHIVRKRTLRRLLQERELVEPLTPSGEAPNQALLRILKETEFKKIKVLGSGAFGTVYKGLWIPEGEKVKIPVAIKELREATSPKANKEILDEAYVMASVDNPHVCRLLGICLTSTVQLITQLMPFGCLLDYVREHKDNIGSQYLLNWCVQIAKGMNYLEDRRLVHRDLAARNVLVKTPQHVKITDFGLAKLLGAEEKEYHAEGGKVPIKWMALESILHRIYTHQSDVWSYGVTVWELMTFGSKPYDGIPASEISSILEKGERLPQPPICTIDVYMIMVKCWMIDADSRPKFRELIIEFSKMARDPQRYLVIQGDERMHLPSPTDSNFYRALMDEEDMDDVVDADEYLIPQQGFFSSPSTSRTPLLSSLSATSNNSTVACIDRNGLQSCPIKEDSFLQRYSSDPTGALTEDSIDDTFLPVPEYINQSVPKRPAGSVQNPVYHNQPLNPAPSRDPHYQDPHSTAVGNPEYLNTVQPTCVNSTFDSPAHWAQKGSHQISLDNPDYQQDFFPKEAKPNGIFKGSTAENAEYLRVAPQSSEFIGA
UniProt P00533, whole entry T790M/C797S/L858R: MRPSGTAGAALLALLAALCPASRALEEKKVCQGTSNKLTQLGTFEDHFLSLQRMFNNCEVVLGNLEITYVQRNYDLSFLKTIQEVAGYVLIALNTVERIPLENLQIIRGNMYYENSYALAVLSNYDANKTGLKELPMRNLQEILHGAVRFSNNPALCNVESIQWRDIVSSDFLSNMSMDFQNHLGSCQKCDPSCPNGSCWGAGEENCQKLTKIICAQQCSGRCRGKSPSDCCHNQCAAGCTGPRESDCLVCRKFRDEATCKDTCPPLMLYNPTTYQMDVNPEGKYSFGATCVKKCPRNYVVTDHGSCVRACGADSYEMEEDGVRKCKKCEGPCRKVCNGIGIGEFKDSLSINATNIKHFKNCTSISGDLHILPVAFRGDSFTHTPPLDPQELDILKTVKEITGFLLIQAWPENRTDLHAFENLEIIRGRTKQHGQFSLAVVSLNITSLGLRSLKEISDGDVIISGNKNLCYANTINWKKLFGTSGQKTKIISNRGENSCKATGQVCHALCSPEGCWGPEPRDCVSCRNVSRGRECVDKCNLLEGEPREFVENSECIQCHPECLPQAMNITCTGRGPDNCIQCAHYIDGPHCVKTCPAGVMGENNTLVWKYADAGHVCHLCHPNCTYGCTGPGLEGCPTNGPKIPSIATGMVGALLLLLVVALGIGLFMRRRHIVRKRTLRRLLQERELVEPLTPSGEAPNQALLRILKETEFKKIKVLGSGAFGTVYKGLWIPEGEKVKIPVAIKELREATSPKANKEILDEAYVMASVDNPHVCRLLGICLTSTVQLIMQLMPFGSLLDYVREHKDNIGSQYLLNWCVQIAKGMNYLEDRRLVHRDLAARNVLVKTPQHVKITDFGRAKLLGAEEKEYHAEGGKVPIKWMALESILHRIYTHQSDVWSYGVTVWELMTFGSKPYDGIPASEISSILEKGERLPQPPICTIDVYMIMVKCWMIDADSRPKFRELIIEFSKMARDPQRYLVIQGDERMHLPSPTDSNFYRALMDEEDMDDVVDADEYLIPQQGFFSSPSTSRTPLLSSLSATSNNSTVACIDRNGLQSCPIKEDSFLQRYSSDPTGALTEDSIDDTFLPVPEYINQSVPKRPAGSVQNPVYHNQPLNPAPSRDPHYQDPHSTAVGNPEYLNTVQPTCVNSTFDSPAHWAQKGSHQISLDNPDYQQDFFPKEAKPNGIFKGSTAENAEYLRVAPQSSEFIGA
UniProt P00533, 25-1210 T790M/C797S/L858R limits assumed: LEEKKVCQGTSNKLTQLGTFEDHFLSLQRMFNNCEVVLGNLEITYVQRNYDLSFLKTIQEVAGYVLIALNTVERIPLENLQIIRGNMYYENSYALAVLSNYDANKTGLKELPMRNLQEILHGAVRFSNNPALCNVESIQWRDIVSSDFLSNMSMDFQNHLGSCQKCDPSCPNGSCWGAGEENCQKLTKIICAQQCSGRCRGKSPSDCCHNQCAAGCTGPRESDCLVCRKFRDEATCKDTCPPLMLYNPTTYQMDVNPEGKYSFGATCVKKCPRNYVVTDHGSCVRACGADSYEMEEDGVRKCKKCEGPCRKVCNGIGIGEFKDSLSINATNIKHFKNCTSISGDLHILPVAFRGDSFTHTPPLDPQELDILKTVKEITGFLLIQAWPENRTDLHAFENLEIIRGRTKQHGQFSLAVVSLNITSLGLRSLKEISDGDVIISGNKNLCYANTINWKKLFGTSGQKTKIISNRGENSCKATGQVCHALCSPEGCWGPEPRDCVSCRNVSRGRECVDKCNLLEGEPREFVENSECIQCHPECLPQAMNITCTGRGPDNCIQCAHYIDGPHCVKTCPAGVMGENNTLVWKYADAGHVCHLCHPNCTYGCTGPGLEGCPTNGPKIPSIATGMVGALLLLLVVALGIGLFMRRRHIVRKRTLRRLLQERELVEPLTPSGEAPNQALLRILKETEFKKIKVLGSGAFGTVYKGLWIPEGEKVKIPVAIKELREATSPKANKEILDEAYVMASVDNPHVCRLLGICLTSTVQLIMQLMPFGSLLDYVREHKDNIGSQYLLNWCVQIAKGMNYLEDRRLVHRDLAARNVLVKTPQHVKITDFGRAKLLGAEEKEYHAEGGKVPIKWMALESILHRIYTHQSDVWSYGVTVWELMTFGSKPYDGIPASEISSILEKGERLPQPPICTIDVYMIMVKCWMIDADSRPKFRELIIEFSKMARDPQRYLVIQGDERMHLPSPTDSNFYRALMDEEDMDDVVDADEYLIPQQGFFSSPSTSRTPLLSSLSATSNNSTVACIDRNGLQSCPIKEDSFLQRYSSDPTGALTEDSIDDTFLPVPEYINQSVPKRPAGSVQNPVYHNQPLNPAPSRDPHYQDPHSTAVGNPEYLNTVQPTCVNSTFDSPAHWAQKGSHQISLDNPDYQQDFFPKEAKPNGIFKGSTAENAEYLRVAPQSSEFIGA
UniProt P00533, with tags, fused parts or gaps C797S/DEL746-750/T790M: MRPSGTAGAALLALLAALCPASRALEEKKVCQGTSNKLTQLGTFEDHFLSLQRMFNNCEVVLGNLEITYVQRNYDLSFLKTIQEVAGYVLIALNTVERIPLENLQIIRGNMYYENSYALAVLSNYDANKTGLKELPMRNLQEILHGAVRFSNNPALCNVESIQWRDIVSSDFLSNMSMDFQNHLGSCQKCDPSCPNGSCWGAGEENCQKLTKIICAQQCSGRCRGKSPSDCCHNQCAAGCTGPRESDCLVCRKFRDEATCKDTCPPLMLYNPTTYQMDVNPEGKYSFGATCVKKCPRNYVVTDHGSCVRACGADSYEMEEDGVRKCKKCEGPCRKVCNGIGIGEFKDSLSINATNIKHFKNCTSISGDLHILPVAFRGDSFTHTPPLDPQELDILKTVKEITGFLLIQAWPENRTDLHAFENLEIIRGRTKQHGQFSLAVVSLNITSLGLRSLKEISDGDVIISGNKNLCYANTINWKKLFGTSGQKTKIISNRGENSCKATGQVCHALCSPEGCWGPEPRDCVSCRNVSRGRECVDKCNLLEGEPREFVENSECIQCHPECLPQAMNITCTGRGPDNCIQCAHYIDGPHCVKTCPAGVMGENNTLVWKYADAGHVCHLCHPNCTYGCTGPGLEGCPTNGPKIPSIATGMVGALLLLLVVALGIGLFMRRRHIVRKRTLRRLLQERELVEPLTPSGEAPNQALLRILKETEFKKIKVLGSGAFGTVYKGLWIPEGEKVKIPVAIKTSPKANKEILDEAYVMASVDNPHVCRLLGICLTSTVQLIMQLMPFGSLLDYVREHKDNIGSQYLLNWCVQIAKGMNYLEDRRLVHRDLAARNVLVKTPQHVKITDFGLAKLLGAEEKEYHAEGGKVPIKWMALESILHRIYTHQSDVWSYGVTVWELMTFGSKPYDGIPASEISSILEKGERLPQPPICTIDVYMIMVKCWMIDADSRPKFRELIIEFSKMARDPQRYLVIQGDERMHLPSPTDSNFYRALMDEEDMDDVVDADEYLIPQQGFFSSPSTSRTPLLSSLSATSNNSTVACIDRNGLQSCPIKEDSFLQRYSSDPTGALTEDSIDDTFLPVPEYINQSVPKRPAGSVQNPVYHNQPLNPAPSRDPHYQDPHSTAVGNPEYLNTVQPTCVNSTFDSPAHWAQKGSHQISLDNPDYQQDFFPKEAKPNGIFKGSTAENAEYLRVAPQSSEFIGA

Columns and labels:
[1] = target: L858R/T790M/C797S triple mutant EGFR (Homo sapiens, UniProt P00533, C797S/L858R/T790M); assay: Enzymology experiment in vitro (HTRF/FRET kinase activity), L858R/T790M/C797S triple mutant EGFR; type: biochemical; conditions: read-out: EGFR (L858R/T790M/C797S) IC50, HTRF KinEASE-TK
[2] = target: Ba/F3 L858R/T790M/C797S EGFR triple mutant cell line (Homo sapiens, UniProt P00533, T790M/C797S/L858R, cells depend on it); assay: Cell proliferation inhibition experiment (CellTiter-Glo), Ba/F3 L858R/T790M/C797S; conditions: read-out: Ba/F3 (L858R/T790M/C797S) IC50, 72 hours, Cell Titer-Glo
[3] = target: Ba/F3 De119/T790M/C797S EGFR triple mutant cell line (Homo sapiens, UniProt P00533, T790M/C797S, cells depend on it, form not given); assay: Cell proliferation inhibition experiment (CellTiter-Glo), Ba/F3 De119/T790M/C797S; conditions: read-out: Ba/F3 (Del19/T790M/C797S) IC50, 72 hours, Cell Titer-Glo
wild-type EGFR = wild-type EGFR (Homo sapiens, UniProt P00533); assay: Enzymology experiment in vitro (HTRF/FRET kinase activity), wild-type EGFR; type: biochemical; conditions: read-out: EGFR (WT) IC50, HTRF KinEASE-TK
[4] = system: EGFR wild-type cell line A431; assay: Cell proliferation inhibition experiment (CellTiter-Glo), A431; conditions: read-out: A431 EGFR WT IC50; A431 cells, 72 hours, Cell Titer-Glo

pIC50 [1]: 9.70 | GI50 [2]: 18.4 nM | GI50 [3]: 7.08 nM | pIC50 (wild-type EGFR): 8.59 | pIC50 [4]: 6.81
Compound: COc1cc(N2CCC(N3CCOCC3)CC2)c(-c2cnn(C)c2)cc1Nc1ncc(Br)c(Nc2ccc3nccnc3c2P(C)(C)=O)n1

pIC50: −log10 of the molar value. The match of structure and compound is tentative.
